The text below walks through data of PubChem BioAssay AID493014 (National Center for Advancing Translational Sciences (NCATS), 2011).

Each structure is given as a SMILES string. Some of the results follow. These are further read-outs of the screen, such as a control signal, another cell line or another target. No call is given for them. Most of these compounds were active or inconclusive in the main read-out, so they are no random draw. Words in brackets tell the shape of the fitted curve; partial curves, single points and poor fits give uncertain potencies.

The test is described as follows: qHTS Assay to Find Inhibitors of Chronic Active B-Cell Receptor Signaling. The settings on record: ABC-DLBCL IkBa-CBG/CBR reporter, luminescence ratio (green luciferase fused to IkBa over red control in TMD8 lymphoma cells), 4 h. In a few lines:
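Concentration-response series (up to 46 uM) were applied to TMD8 dual-reporter cells for 4 h at 37C with doxycycline. Green/red ratio, after filter-overlap correction, defined %Activity; red signal alone was normalised to basal cells and zero luminescence.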

Where [1] appears, read: measured here: CBR red luminescence, cell number.
Setting [2] is: measured here: IkBa-CBG green luminescence.

For `CN(Cc1ccccc1)c1ccc(C(CC(N)=O)NC(=O)c2ccc(Br)cc2)cc1[N+](=O)[O-]` (configuration not stated), the concentration at half-maximal activity (AC50) under setting [1] was 28.2 µM [falling, single point].
Turning to `Cc1ccc(C(CNS(=O)(=O)c2ccc(F)cc2C)N2CCN(C)CC2)cc1` (configuration not stated), the AC50 under setting [1] is 29.1 µM [falling, single point].
In the case of `COCCn1c(C)cc(/C=C2/NC(=O)N(c3ccc(Cl)cc3)C2=O)c1C`, the AC50 under setting [1] is 32.6 µM [falling, partial curve, poor fit].
Same read-out and setting: for `COc1ccccc1OCCC(=O)OCC(=O)NC(=O)NC(C)(C)C` the value was 14.1 µM [falling, partial curve, poor fit]; for `Cc1ccc(CNC(=O)CSc2c3c(nc4cc(Cl)ccc24)CCCC3)o1`, 29.1 µM [falling, single point]; for `Cc1cc(NC(=O)c2ccc(-c3ccc(F)c(Cl)c3)o2)no1`, 2 µM [rising, partial curve, poor fit].
With `COc1cc(C(=O)NNC(=S)Nc2ccc(S(N)(=O)=O)cc2)cc(OC)c1OC`, the half-maximal activity concentration (AC50) is 31.6 µM [rising, single point] under setting [1] and 15.8 µM [falling, partial curve] under setting [2].
Take `Cc1ccc(/C=N/Nc2ncnc3nc[nH]c23)cc1`: the AC50 under setting [1] is 12.6 µM [falling, partial curve, poor fit].
Same read-out and setting: for `CCc1ccc2[nH]c3nc(SCc4nnc(-c5ccc(C)cc5)o4)nnc3c2c1` the value was 2.59 µM [rising, full curve]; for `Fc1ccc(Nc2ncnc3sc4c(c23)CCC4)cc1F`, 13 µM [rising, partial curve].
Regarding `COc1ccccc1C(=O)NCCc1nc2ccccc2n1C`, the AC50 under setting [1] was 10 µM [falling, partial curve, poor fit].
Take `O=C(O)COc1ccc(/C=N/NC(=O)c2ccccc2Br)cc1`: the half-maximal activity concentration (AC50) under setting [1] was 3.98 µM [falling, partial curve].
In the case of `Cc1cccc(C(=O)N/N=C/C(C)Cc2ccc3c(c2)OCO3)c1` (configuration not stated), the concentration at half-maximal activity (AC50) under setting [1] is 16.4 µM [falling, partial curve, poor fit].
As for `Cc1ccc(NC(=O)CSc2nnc(CNC(=O)c3ccco3)n2C)cc1C`, the AC50 under setting [1] was 2.06 µM [rising, full curve, poor fit].
On the same count and under the same terms, the result for `Nc1n[nH]c(N)c1N=Nc1ccc(Cl)cc1Cl` reads 6.51 µM [rising, full curve, poor fit].
`O=C(Nc1ccccc1Cl)/C(Cl)=C(\Cl)S(=O)c1ccccc1` (configuration not stated): the AC50 by setting is: under setting [1], 1.26 µM [falling, full curve, poor fit]; under setting [2], 3.55 µM [rising, full curve, poor fit].
With `Cc1ccc(-n2ncc3c(=O)n(CC(=O)N4CCN(c5ccccc5)CC4)cnc32)cc1`, under setting [1], the concentration at half-maximal activity (AC50) is 3.16 µM [rising, partial curve].
As to `Cc1cc(CNC(=O)c2cc(COc3c(F)cccc3F)on2)nn1C`, the half-maximal activity concentration (AC50) under setting [1] is 0.794 µM [rising, full curve, poor fit].
Same read-out and setting: for `CC(C)(C)c1ccc(-c2noc(CCC(=O)Nc3cccnc3)n2)cc1` the value was 7.08 µM [falling, full curve, poor fit]; for `Clc1cccc(-c2cc3nc4c(c(N5CCOCC5)n3n2)CCCC4)c1`, 0.164 µM [rising, full curve, poor fit].
As for `CCOC(=O)C1=C(C)N(c2ccc(OC)cc2)C(=O)/C1=C\c1cccs1`, under setting [1], the AC50 was 1.64 µM [rising, full curve, poor fit].
In the case of `CC12CCC(C(=O)Nc3cccnc3)(CC1=O)C2(C)C` (configuration not stated), the AC50 under setting [1] was 5.8 µM [rising, full curve, poor fit].
As to `O=C(CCl)Nc1cccc(CP(=O)(c2ccccc2)c2ccccc2)c1`, under setting [1], the AC50 is 5.62 µM [falling, full curve, poor fit].
With `CS(=O)c1ccccc1-c1nc(-c2ccc(Cl)cc2)no1` (configuration not stated), the AC50 under setting [1] was 12.6 µM [rising, partial curve, poor fit].
Turning to `COC(=O)c1ccc(CSc2nc3scc(-c4cccs4)c3c(=O)[nH]2)o1`, under setting [1], the AC50 was 35.5 µM [falling, single point].
Still for that read-out and setting: the result for `COc1ccc(-c2nc(SC(CC(=O)NCc3ccccc3)c3ccc(OC)c(OC)c3)n[nH]2)cc1` (configuration not stated) reads 20.6 µM [rising, single point]; that for `CC(C)OC(=O)Cn1nc(C(F)(F)F)c2c1CCCC2`, 35.5 µM [rising, partial curve, poor fit].
Consider `CC(C)c1nnc(NC(=O)CCC(=O)Nc2ccc(F)cc2)s1`, for which the AC50 under setting [1] was 15.8 µM [falling, partial curve, poor fit].
Regarding `O=C(NCc1cc([N+](=O)[O-])ccc1O)c1cccnc1Sc1ccccc1`, the half-maximal activity concentration (AC50) under setting [1] is 8.91 µM [falling, partial curve].
The same measure, in the same setting: for `Cc1nc2ccc(NC(=O)NC(=O)c3c(Cl)cccc3Cl)cc2o1` the value was 3.55 µM [rising, single point]; for `CC(C)CCNC(=O)c1ccc2c(Cl)c3c(nc2c1)CCC3`, 17.8 µM [falling, single point].
Still for that read-out and setting: for `OCCNCCCCOc1ccc(OCc2ccccc2)cc1` the value was 6.51 µM [rising, single point].
`CC(=O)Nc1cccc(/C(C)=N/NC(=O)c2ccc3c(c2)OCO3)c1`: the AC50 under setting [1] was 11.2 µM [falling, partial curve].
Regarding `CC(=O)Cc1nsc(NC(=O)c2ccc(-c3ccccc3Cl)o2)n1`, the half-maximal activity concentration (AC50) under setting [1] is 10.3 µM [falling, partial curve].
Take `O=c1c2sc(-c3ccccc3)cc2nc2n1CCCCC2`: under setting [1], the AC50 is 3.16 µM [falling, partial curve, poor fit].
Same read-out and setting: for `COc1ccc(OC2C(=O)N(Cc3ccc4c(c3)OCO4)C2c2cccs2)cc1` (configuration not stated) the value was 35.5 µM [falling, single point]; for `O=C(CCn1cccc1)N1CCc2ccccc21`, 0.461 µM [falling, full curve, poor fit].
Same read-out and setting: the result for `Cn1sc(NC(=O)c2cccc(Cl)c2)nc1=O` reads 11.2 µM [falling, partial curve, poor fit]; that for `CCOC(=O)c1ccc(NC(=O)N2CC(C)OC(C)C2)cc1` (configuration not stated), 6.31 µM [falling, single point].
Still for that read-out and setting: for `O=C(Nc1cccnc1)c1cc(S(=O)(=O)N2CCCCC2)c(Cl)cc1Cl` the value was 35.5 µM [falling, single point].
Consider `COc1ccc(C(=O)O/N=C(\N)c2ccccn2)cc1`, for which the half-maximal activity concentration (AC50) under setting [1] is 0.398 µM [falling, full curve].
Take `Cc1cc(=O)[nH]c2ccc(S(=O)(=O)Nc3ccccc3)cc12`: under setting [1], the AC50 was 35.5 µM [rising, single point].
For the molecule `Cc1onc(-c2ccccc2)c1C(=O)OCC(=O)Nc1ccc(Cl)cc1`, the half-maximal activity concentration (AC50) under setting [1] was 20.6 µM [falling, partial curve].
`Cc1ccc(S(=O)(=O)NN2C(=O)/C(=C/c3ccccn3)SC2=S)cc1`: the AC50 under setting [2] is 18.4 µM [rising, partial curve, poor fit].
On to `CCCCCCn1c(C)nc2c(c1=O)c1nc3ccccc3nc1n2/N=C/c1ccco1`, for which the AC50 under setting [1] was 29.1 µM [rising, single point].
Take `COC(=O)/C=C/C(=O)N1CCN(c2cccc(Cl)c2)CC1`: the concentration at half-maximal activity (AC50) was 16.4 µM [falling, partial curve, poor fit] under setting [1] and 32.6 µM [rising, partial curve, poor fit] under setting [2].
With `CCCCN1C(=O)NC2NC(=O)NC21` (configuration not stated), under setting [1], the concentration at half-maximal activity (AC50) was 0.651 µM [rising, partial curve, poor fit].
In the case of `Cc1cc(C)n2cc(COc3ccc4ccccc4c3)nc2n1`, the AC50 under setting [1] was 29.1 µM [falling, single point].
On the same count and under the same terms, the result for `COc1ccccc1C(=O)NNC(=O)c1ccc(Cl)cc1` reads 22.4 µM [falling, partial curve, poor fit]; that for `CC[C@]12c3[nH]c4ccc(Cl)cc4c3CCN1C(=O)[C@@H](CC(=O)NCCC1=CCCCC1)C[C@@H]2C(=O)N1CCN(C(=O)c2ccco2)CC1`, 16.4 µM [falling, partial curve].
For the molecule `Cc1ccc(C(=O)c2c3ccc([N+](=O)[O-])cc3[n+]([O-])n2CCCC(N)=O)cc1`, the AC50 under setting [1] was 6.51 µM [rising, full curve, poor fit].
As to `CC(C)/C=C1\CC/C(=C\c2ccc(N(C)C)cc2)C1=O`, the AC50 under setting [1] is 0.206 µM [rising, full curve].
As for `COC(=O)c1ccc(CSc2n[nH]c(-c3ccccc3)n2)o1`, the half-maximal activity concentration (AC50) under setting [1] is 35.5 µM [falling, single point].
With `CCc1cc(C(=O)Nc2nnc(C3CC3)s2)sc1C`, under setting [1], the AC50 was 0.00517 µM [rising, full curve, poor fit].
The same measure, in the same setting: the result for `CCOC(=O)C1(Cc2ccc(Cl)cc2)CCN(CCCn2cccn2)CC1` reads 11.2 µM [rising, partial curve].
Take `O=C(NNC1=C(C(=O)C(F)(F)F)CCC1)c1cccc(Cl)c1`: under setting [1], the AC50 was 9.2 µM [falling, partial curve, poor fit].
In the case of `Cc1ccc(OCC(=O)N/N=C/c2ccc([N+](=O)[O-])o2)cc1`, the concentration at half-maximal activity (AC50) under setting [1] was 20.6 µM [falling, single point].
Same read-out and setting: the result for `Cc1c(NC(=O)CSCc2ccccc2)cccc1C(=O)O` reads 12.6 µM [falling, partial curve]; that for `COc1cccc(CCC(=O)Nc2cc3c(cc2C(=O)O)OCCCO3)c1OC`, 29.1 µM [falling, single point]; that for `Cc1ccc(N2C(=O)S/C(=C/c3cn(C)c4ccccc34)C2=O)cc1`, 0.631 µM [rising, full curve, poor fit].
Still for that read-out and setting: for `COc1cccc2[nH]c(C(=O)NC(C)c3ccccc3)cc12` (configuration not stated) the value was 35.5 µM [falling, single point]; for `Cc1cc(Cl)ccc1NC(=S)NC(C)(C)C`, 0.112 µM [falling, full curve]; for `O=C1O/C(=C\c2ccccc2)c2ccccc21`, 8.2 µM [rising, partial curve, poor fit].
For `CCN(CC(=O)Nc1c(F)cccc1F)C(=O)CNC(=O)c1ccco1`, the AC50 under setting [1] is 29.1 µM [rising, single point].
